pIC50: −log10 of the molar value.

The test concerns the target Bromodomain testis-specific protein (Homo sapiens, UniProt Q58F21).

A word on the pIC50: it is the negative decadic logarithm of the IC50, by convention in mol/L. For the molecule `CCc1cnn2c(NCc3ccc[n+]([O-])c3)cc(N3CCCC[C@H]3CCO)nc12` [DINACICLIB], the pIC50 was 4.21 to 4.43.

The values are drawn from ChEMBL document CHEMBL3875233, “Non-kinase targets of protein kinase inhibitors” (Nat Rev Drug Discov, 2017).
